# Assay results published in patent publication US20110039770A1, “INHIBITORS OF PROTEIN KINASE C ISOFORMS AND USES THEREOF” (PHARMAGAP INC., priority 2005, published 2011).
# Sequences of proteins named here, by UniProt entry; tags and fusion partners are left off. A change or cut given only in a name is not applied to a line headed by its entry.
# UniProt Q05655: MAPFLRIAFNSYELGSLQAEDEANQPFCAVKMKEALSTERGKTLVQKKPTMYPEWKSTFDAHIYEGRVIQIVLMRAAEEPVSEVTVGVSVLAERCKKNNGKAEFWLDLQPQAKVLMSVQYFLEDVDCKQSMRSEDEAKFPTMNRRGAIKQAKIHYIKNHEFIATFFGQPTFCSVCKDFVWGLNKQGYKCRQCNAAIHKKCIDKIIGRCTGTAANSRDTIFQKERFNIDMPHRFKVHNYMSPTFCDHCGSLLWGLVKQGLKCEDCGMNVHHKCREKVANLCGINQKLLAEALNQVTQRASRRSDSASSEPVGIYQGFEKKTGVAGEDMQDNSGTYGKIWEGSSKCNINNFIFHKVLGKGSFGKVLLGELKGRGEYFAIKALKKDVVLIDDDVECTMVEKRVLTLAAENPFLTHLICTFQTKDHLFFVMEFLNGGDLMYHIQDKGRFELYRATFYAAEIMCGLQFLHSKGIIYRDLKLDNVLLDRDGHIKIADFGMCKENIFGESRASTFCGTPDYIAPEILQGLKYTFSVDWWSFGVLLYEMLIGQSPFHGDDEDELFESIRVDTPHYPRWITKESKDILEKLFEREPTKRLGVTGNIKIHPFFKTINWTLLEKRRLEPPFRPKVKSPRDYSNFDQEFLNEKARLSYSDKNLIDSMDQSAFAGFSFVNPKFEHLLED
# UniProt P05771, whole entry: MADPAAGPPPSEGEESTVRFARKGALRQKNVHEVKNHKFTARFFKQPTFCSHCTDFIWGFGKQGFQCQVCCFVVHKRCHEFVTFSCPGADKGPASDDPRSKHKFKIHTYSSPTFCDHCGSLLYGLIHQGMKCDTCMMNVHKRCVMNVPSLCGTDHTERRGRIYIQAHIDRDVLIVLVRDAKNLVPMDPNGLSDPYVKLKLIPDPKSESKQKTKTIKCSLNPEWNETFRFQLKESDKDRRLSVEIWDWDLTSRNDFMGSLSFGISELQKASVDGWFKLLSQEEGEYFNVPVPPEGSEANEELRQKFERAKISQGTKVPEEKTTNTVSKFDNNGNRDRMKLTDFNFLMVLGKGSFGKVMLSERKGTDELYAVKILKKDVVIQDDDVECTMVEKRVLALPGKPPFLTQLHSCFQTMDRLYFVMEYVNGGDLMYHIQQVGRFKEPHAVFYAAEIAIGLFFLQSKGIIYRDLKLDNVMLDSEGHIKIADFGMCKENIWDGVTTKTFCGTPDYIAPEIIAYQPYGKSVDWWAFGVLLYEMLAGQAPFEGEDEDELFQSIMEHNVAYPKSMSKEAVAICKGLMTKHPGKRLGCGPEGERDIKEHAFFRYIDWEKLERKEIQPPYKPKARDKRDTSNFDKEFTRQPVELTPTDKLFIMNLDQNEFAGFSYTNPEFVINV
# At least one peptide structure holds a part that was inferred or is arguable (an end, a ring closure or a residue). At least one compound was matched to its structure with a doubt left. Where a SMILES comes first, the peptide text is derived from it. The star is where a group is joined. PNA(A) = NCCN(CC(=O)*)C(=O)Cn1cnc2c(N)ncnc21
# How the values were obtained:
# [1] = system: H661 human non-small cell lung cancer cells; assay: Inhibition of NSCLC cell proliferation (protocol of Example 14); assay type: cell-based; conditions: dose and time dependent
# Method: The ability of compounds PKI 1, PKI 2 and PKI 3 to inhibit cancer cell proliferation was tested in vitro using the human neuroblastoma cell line IMR-32. Monolayer cell cultures were trypsinized and the test compound was added at the doses indicated in Table 24 and internalized by pinocytic endocytosis using Influx TM pinocytic cell-loading reagent, a kit from Molecular Probes (Eugene, Oreg.) following the manufacturer's recommendations. The indicated doses refer to the concentration in the loading medium, which was used on 1×10^6 cells in a 10 μl volume, i.e. contained 10 μg to 100 ug of test compound that provides […] per cell. […] The cells loaded with test compound were cultured in 96 well plates (5,000 cells in 100 μl per well), and the proliferation was monitored over 3 consecutive days. The increase in cell population was quantified using a Hoechst reagent-based assay (modified from Rao and Otto, 1992, Analytical Biochem. 207:186-192) that measures the total DNA of the population. Fluorescence was measured using a Millipore CytoFluor 2350 plate reader (excitation at 360 nm and emission at 460 nm). The measurements were obtained as relative fluorescence intensity, a value that is directly correlated to the total number of cells. Data are expressed as a percentage of matching controls that were supplemented with culture medium alone. […]
# MDA MB231 cells = assay: Matrigel invasion/migration with EGF as chemoattractant; assay type: cell-based, human; conditions: 5 mM; 10 ng/ml EGF; 48 h
# Method: Experiments were conducted to investigate the effect of compound TIM 10 (5 mM dose) on migration of human breast cancer cells (MDA MB231) with and without EGF (10 ng/ml) as a chemo-attractant. A standard a two-chamber culture system (BD BIOcoat™ Matrigel™ Invasion Chamber; BD Biosciences Clont, Discovery labware, Immunocytometry system Pharmingen) was employed for these experiments. Control chambers used in the following experiment are similar to the invasion chambers except that no Matrigel matrix is present, thus allowing cells to freely reach the lower membrane surface through the membrane pores.
# The ability of compound TIM 10 to inhibit invasion/migration of MDA MB231 cells in the presence of the chemoattractant EGF was measured as described above using EGF 10 ng/mL as the chemoattractant.
# [2] = system: H661 human non-small cell lung cancer cells; assay: Cell cycle analysis by flow cytometry; assay type: cell-based; conditions: 5 mM
# [3] = system: gap junction function in IMR-32 cells; assay: Gap junction function, Lucifer yellow scrape loading; assay type: cell-based, human; conditions: 50 μM; 3 h and 24 h
# MRP-1 = assay: Immunocytochemistry of MDR protein expression in LS180 cells; assay type: cell-based, human; conditions: 5 μM + doxorubicin 50 ng/mL
# PKC delta = PKC delta (Homo sapiens, UniProt Q05655); assay: Kinase-Glo Luminescent Kinase Assay; assay type: biochemical
# Method: (§1) Compounds TIM 10, 11, 13, 14, 15, and 18-22 (see Table 28) were tested for their ability to inhibit the activity of PKC-alpha, beta 1, delta and epsilon isoforms the Kinase-Glo™ Luminescent Kinase Assay (Promega, Cat # V6712/3/4) following the manufacturer's instructions.
# PKCα = PKCα (Homo sapiens, UniProt P17252); assay: Immunocytochemistry of protein level in LS180 cells; assay type: cell-based; design: endogenous PKC-α in (A) untreated human neuroblastoma (IMR-32) cells; endogenous in cells; host or cells: IMR-32 human neuroblastoma cells
# PKC beta 1 = PKC beta 1 (Homo sapiens, UniProt P05771); assay: Kinase-Glo Luminescent Kinase Assay; assay type: biochemical; design: purchased
# Method: as §1
# PKC epsilon = target: T1, PKC epsilon (Homo sapiens, UniProt Q02156); assay: Kinase-Glo Luminescent Kinase Assay; assay type: biochemical; design: purchased
# T1 sequence (Q02156 1-737): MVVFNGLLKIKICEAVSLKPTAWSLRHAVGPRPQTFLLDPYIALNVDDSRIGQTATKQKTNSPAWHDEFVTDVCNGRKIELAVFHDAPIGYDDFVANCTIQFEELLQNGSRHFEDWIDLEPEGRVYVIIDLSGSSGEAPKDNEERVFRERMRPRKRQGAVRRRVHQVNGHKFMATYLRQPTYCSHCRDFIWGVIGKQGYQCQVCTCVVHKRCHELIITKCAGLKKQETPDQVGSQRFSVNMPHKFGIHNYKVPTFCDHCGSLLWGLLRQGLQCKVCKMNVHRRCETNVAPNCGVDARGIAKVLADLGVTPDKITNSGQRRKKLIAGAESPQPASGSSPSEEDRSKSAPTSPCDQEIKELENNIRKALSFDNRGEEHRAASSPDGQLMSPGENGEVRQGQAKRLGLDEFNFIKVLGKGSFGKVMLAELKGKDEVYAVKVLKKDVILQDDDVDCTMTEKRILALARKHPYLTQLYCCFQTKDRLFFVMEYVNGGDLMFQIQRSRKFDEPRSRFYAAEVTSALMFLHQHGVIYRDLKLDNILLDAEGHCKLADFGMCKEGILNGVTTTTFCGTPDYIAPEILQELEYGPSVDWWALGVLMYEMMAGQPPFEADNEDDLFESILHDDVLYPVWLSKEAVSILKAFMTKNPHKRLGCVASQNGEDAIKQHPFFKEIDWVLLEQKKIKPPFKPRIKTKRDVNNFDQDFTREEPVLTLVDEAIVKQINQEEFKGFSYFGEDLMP
# Method: as §1
# P-gp = assay: Immunocytochemistry of MDR protein expression in LS180 cells; assay type: cell-based, human; conditions: 5 μM + doxorubicin 50 ng/mL
# [4] = system: MDA-MB-231 human mammary adenocarcinoma; assay: Establishment of metastatic breast cancer xenograft in nude mice; assay type: in vivo, mouse
# [5] = 5 mg/kg every 72 hrs, MDA-MB-231
compound,measurement,setting,value
CC[C@H](C)[C@H](NC(=O)[C@H](CO)NC(=O)[C@@H](NC(=O)CNC(=O)[C@@H](NC(=O)[C@H](CC(C)C)NC(=O)[C@H](CC(N)=O)NC(=O)[C@H](CCC(N)=O)NC(=O)[C@H](C)NC(=O)[C@H](CC(=O)O)NC(=O)[C@H](CCCCN)NC(=O)CNC(=O)CNC(=O)CNC(=O)CNC(=O)CNC(=O)CNC(=O)CNC(=O)[C@H](CC(C)C)NC(=O)[C@H](CCCNC(=N)N)NC(=O)[C@H](Cc1ccccc1)NC(=O)[C@H](CCCCNC(=O)CN(CCN)C(=O)Cn1cnc2c(N)ncnc21)NC(=O)[C@H](CCCNC(=N)N)NC(=O)[C@H](CCCNC(=N)N)NC(=O)[C@H](Cc1ccccc1)NC(C)=O)[C@@H](C)CC)[C@@H](C)CC)C(N)=O [TIM 10] (Ac-FRRK(PNA(A))FRLGGGGGGGKDAQNLIGISI-NH2),sensitivity of cell survival,[1],extremely sensitive
same,migration in presence of EGF,MDA MB231 cells,strong inhibitory impact on the migration
same,cell cycle effect,[2],G2 phase block
same,gap junction function (Lucifer yellow dye movement),[3],able to restore gap junction function
same,expression of MRP-1,MRP-1,decreased
same,inhibition of PKC delta activity (in words),PKC delta,inhibited
same,levels of PKC-α protein,"PKCα; 5 or 10 μM, 24 hrs",decreased
same,expression of PKCalpha,"PKCα; LS180, with doxorubicin",decreased
same,inhibition of PKC beta 1 activity (in words),PKC beta 1,dramatically inhibited
same,inhibition of PKC epsilon activity (in words),PKC epsilon,only sensitive at the higher concentration
same,expression of P-gp,P-gp,decreased
same,delay in tumour establishment versus control,[4]; [5],60%
same,delay of tumour establishment (M1) versus control,[4]; [5],9 days
same,time to reach tumour establishment (M1),[4]; [5],25 days
same,fatty tissue share of tumours,"[4]; 3 of 5 samples, pathology analysis",up to 90%
